Among the data in article PMC5963807 are binding values, retold here.

Results are given in words; binding and its absence hold for the method and conditions named. A result given as binding can be weak or reduced; the word gives no strength. For some assays here: In cells and extracts the contact can be indirect. For some assays here: Sequences can lack the tags named with a protein.

Experiment [1] deals with T1, Ufe1p (split-ubiquitin bait) (yeast (S. cerevisiae)) (UniProt P41834).
T1 sequence: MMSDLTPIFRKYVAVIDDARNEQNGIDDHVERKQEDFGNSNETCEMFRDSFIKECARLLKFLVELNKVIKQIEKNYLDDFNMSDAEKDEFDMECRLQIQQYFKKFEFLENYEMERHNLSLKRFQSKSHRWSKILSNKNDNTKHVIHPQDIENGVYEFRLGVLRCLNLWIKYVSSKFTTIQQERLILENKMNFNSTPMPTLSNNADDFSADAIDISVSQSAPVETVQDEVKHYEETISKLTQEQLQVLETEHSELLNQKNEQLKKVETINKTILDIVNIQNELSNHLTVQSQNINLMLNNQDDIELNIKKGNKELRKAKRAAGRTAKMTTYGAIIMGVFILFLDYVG
In words: two-hybrid; split-ubiquitin-based membrane yeast two-hybrid assay (MYTH); bait co-expressed with NubG-tagged prey in yeast; empty prey vector (NubG) as negative control.

Experiment [2] has as its target T2, AtSyp81-cYFP (Arabidopsis) (UniProt P59277).
T2 sequence: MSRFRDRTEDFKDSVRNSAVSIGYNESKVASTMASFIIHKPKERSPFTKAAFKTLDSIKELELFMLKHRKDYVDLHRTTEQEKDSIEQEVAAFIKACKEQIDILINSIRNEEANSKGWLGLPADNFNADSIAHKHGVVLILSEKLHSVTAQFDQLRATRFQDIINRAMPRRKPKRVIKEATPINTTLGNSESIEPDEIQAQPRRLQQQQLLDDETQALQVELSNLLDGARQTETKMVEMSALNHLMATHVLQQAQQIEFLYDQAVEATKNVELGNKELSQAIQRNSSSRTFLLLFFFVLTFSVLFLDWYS
In words: split reporter; BiFC in N. benthamiana, proteins expressed via agroinfiltration, confocal microscopy; p33 with AtSyp81: followed by inoculation with TBSV, images 3 days later.

Turning to “CIRV p36 replication protein (tested against the bait Ufe1p) (carnation Italian ringspot virus)”, the binding result in experiment [1] is listed as “binds”. In the case of “nYFP-AtUse1 (Arabidopsis (by the prefix At))”, the binding result in experiment [2] was “binds”.
